{"source": "patent US6719969B1", "about": "“Treatment of liver disease and injury with CXC chemokines” (The Regents of The University of Michigan, priority 1999, dated 2004)", "molecules": {"B1": {"name": "KC: murine ELR-CXC chemokine with neutrophil chemotactic properties (protein, UniProt P12850 25-96, looked up)", "Growth-regulated alpha protein": "APIANELRCQCLQTMAGIHLKNIQSLKVLPSGPHCTQTEVIATLKNGREACLDPEAPLVQKIVQKMLKGVPK"}, "B2": {"name": "MIP-1α: murine CC chemokine, endogenous hepatic level measured (protein, UniProt P10855 24-92, looked up)", "C-C motif chemokine 3": "APYGADTPTACCFSYSRKIPRQFIVDYFETSSLCSQPGVIFLTKRNRQICADSKETWVQEYITDLELNA"}, "B3": {"name": "MIP-2: ELR-containing CXC chemokine, macrophage inflammatory protein-2; recombinant murine protein (protein, UniProt P10889 28-100, looked up)", "C-X-C motif chemokine 2": "AVVASELRCQCLKTLPRVDFKNIQSLSVTPPGPHCAQTEVIATLKGGQKVCLDPEAPLVQKIIQKILNKGKAN"}}, "system": "liver homogenates of CD1 mice", "test": "Hepatic chemokine levels before and after acetaminophen challenge (ELISA)", "assay_type": "in vivo, mouse", "conditions": "mice fasted 12 h; for Hepatic level, 48 h post Acetaminophen: 400 mg/kg acetaminophen i.p.; for Hepatic level, Prior to Acetaminophen: liver homogenate ELISA", "data": [{"molecule": "MCP-1: murine CC chemokine, endogenous hepatic level measured", "values": [{"measurement": "Hepatic level, 48 h post Acetaminophen", "result": "0.9 ± 0.3", "unit": "ng/g tissue"}, {"measurement": "Hepatic level, Prior to Acetaminophen", "result": "1.0 ± 0.1", "unit": "ng/g tissue"}]}, {"molecule": "B1", "values": [{"measurement": "Hepatic level, 48 h post Acetaminophen", "result": "0.9 ± 0.2", "unit": "ng/g tissue"}, {"measurement": "Hepatic level, Prior to Acetaminophen", "result": "0.4 ± 0.1", "unit": "ng/g tissue"}]}, {"molecule": "B2", "values": [{"measurement": "Hepatic level, 48 h post Acetaminophen", "result": "0.1 ± 0.2", "unit": "ng/g tissue"}, {"measurement": "Hepatic level, Prior to Acetaminophen", "result": "0.5 ± 0.1", "unit": "ng/g tissue"}]}, {"molecule": "B3", "values": [{"measurement": "Hepatic level, 48 h post Acetaminophen", "result": "0.8 ± 0.1", "unit": "ng/g tissue"}, {"measurement": "Hepatic level, Prior to Acetaminophen", "result": "0.4 ± 0.1", "unit": "ng/g tissue"}]}]}
